Test results as given in PubChem BioAssay AID330 (DTP/NCI, 2004).
The list does not hold the whole screen: it gathers tests that were run many times, whatever their T/C, doses with no T/C, and many T/C values between a quarter and a half above the control. Other doses and runs of a compound stand elsewhere. T/C gives the treated animals as a percentage of the vehicle group. Some doses have a count of surviving animals in place of a T/C: the source holds a T/C of zero for them, seemingly a mark for toxic or unscored doses. Some survivor counts are full or nearly so, which does not show that the dose was tolerated: survival well below the control is almost never listed, so the zero probably covers shortened survival too. Counts of survivors are from the toxicity check (mostly the fifth day) where no day follows; animals may have died later. Schedules are NCI's codes, read here as Q, the interval in days (D) or hours (H), X, the number of doses. Some entries hold several experiments; their values stand side by side, smallest first. Where survival is the endpoint, the PubChem record calls one and a half times the control and up active, and a quarter to a half above the control has no call in these data; cut-offs in other NCI protocols can differ. Some T/C values are followed by the survivors on the day toxicity was checked, most often the fifth; without a count, all were alive then.

System: P388 leukemia ip, CD2F1 mice, survival T/C
Assay: NCI In Vivo Anticancer Drug Screen. Data for tumor model P388 Leukemia (intraperitoneal) in CD2F1 (CDF1) mice
Details: T/C endpoint: median survival time, higher T/C = longer survival
[1] = dose: 0.5 mg/kg/injection, schedule: Q01DX009 (ip), vehicle: saline with Tween-80
[2] = dose: 200.0 mg/kg/injection, schedule: Q01DX005 (ip), vehicle: Klucel (hydroxypropylcellulose) (HPC)
[3] = dose: 50.0 mg/kg/injection, schedule: Q01DX009 (ip), vehicle: saline with Tween-80
[4] = dose: 100.0 mg/kg/injection, schedule: Q01DX009 (ip), vehicle: saline with Tween-80
[5] = dose: 200.0 mg/kg/injection, schedule: Q01DX009 (ip), vehicle: saline with Tween-80

COc1cc2c(c(OC)c1OC)-c1ccc(OC)c(=O)cc1[C@@H](NC(=O)CCl)CC2 was tested, and the T/C (dose: 0.03 mg/kg/injection, schedule: Q01DX009 (ip), vehicle: saline with Tween-80) was 137 % of control, the T/C (dose: 0.06 mg/kg/injection, schedule: Q01DX009 (ip), vehicle: saline with Tween-80) was 130, 141, 146 % of control and the T/C (dose: 0.12 mg/kg/injection, schedule: Q01DX009 (ip), vehicle: Klucel (hydroxypropylcellulose) (HPC)) was 126 % of control. The T/C (dose: 0.13 mg/kg/injection, schedule: Q01DX009 (ip), vehicle: saline with Tween-80) was 147 % of control, the survivor count (dose: 0.25 mg/kg/injection, schedule: Q01DX009 (ip), vehicle: saline with Tween-80) was 6 of 6 and the T/C (dose: 0.5 mg/kg/injection, schedule: Q01DX009 (ip), vehicle: Klucel (hydroxypropylcellulose) (HPC)) was 132 % of control. The T/C [1] was 144 % of control, the survivor count [1] was 6 of 6 and the survivor count (dose: 1.0 mg/kg/injection, schedule: Q01DX009 (ip), vehicle: Klucel (hydroxypropylcellulose) (HPC)) was 5 of 6. For the same compound, the survivor count (dose: 1.0 mg/kg/injection, schedule: Q01DX009 (ip), vehicle: saline with Tween-80) was 0 of 6 and 5 of 6, the survivor count (dose: 1.25 mg/kg/injection, schedule: Q01DX009 (ip), vehicle: saline) was 3 of 6 and the survivor count (dose: 2.5 mg/kg/injection, schedule: Q01DX009 (ip), vehicle: saline) was 1 of 6. The survivor count (dose: 5.0 mg/kg/injection, schedule: Q01DX009 (ip), vehicle: saline) was 0 of 6.

For CC(=O)Nc1cc(Cl)cc2c1-c1ccc(Cl)cc1C2=O, the survivor count [2] was 1 of 6.

CC(Nc1ccc([N+](=O)[O-])c2nonc12)C(=O)O (centres undefined) was tested, and the survivor count [3] was 6 of 6 and the survivor count [4] was 6 of 6.

With O=C(CCl)c1ccc([N+](=O)[O-])cc1 the survivor count (dose: 25.0 mg/kg/injection, schedule: Q01DX005 (ip), vehicle: Klucel (hydroxypropylcellulose) (HPC)) was 5 of 6, the survivor count (dose: 50.0 mg/kg/injection, schedule: Q01DX005 (ip), vehicle: Klucel (hydroxypropylcellulose) (HPC)) was 0 of 6 and the survivor count (dose: 100.0 mg/kg/injection, schedule: Q01DX005 (ip), vehicle: Klucel (hydroxypropylcellulose) (HPC)) was 0 of 6. For the same compound, the survivor count [4] was 3 of 6 and the survivor count [5] was 0 of 6.

In the case of O=C(CCl)N1C(=O)NC(c2ccc(Cl)cc2)(c2ccc(Cl)cc2)C1=O, the T/C (dose: 40.0 mg/kg/injection, schedule: Q04DX003 (ip), vehicle: other, evaluated on day 30) is reported as 128 % of control, the T/C (dose: 40.0 mg/kg/injection, schedule: Q04DX003 (ip), vehicle: other, evaluated on day 35) is reported as 136 % of control and the survivor count (dose: 80.0 mg/kg/injection, schedule: Q04DX003 (ip), vehicle: other) is reported as 3 of 6. For the same compound, the survivor count (dose: 160.0 mg/kg/injection, schedule: Q04DX003 (ip), vehicle: other) was 1 of 6 and the survivor count (dose: 320.0 mg/kg/injection, schedule: Q04DX003 (ip), vehicle: other) was 0 of 6.

In the case of CC(C)N1COC(c2ccccc2)C1 (centres undefined), the survivor count (dose: 100.0 mg/kg/injection, schedule: Q01DX005 (ip), vehicle: saline) is reported as 0 of 6 and 2 of 6 and the survivor count (dose: 200.0 mg/kg/injection, schedule: Q01DX005 (ip), vehicle: saline) is reported as 1 of 6.

O=C1c2ccccc2-c2cn(-c3ccccc3)c3cccc1c23 was tested, and the survivor count [2] was 3 of 6.

N=C(N)SCc1c2ccccc2cc2ccccc12 was tested, and the T/C [3] was 136 % of control, the T/C [4] was 136 % of control and the survivor count [5] was 6 of 6. For the same compound, the T/C (dose: 200.0 mg/kg/injection, schedule: Q04DX003 (ip), vehicle: saline with Tween-80) was 131 % of control and the T/C (dose: 400.0 mg/kg/injection, schedule: Q04DX003 (ip), vehicle: saline with Tween-80) was 127 % of control [5 of 6 alive].
